# Source: the supplement of paper PMC7238544
# Structures can show the parent of a compound that is named as a salt. ± gives the standard deviation of the averaged measurements. Some of the results follow. The data scatter; read single values as rough.
# Key:
# hAMSC donor 1 [1] = assay: Hoechst total cell count ratio vs vehicle control; higher = more cells (less toxicity)
# hAMSC donor 2 [2] = assay: as above
# hAMSC donor 1 [3] = assay: transgenic luciferase activity (RLU/mg protein) fold change vs vehicle control (ratio); higher = more transgene expression
# hAMSC donor 2 [4] = assay: as above
# hAMSC donor 1 [5] = assay: transfection efficiency (EGFP+ cells / Hoechst count) fold change vs vehicle control (ratio); hAMSC are human adipose-derived mesenchymal stem cells given an EGFP-luciferase plasmid by lipofection; higher = enhanced transfection
# hAMSC donor 2 [6] = assay: as above
# [7] = priming compound concentration 0.2 µM
# [8] = priming compound concentration 1.7 µM
# [9] = priming compound concentration 13 µM
Compound,Hoechst total cell count ratio (hAMSC donor 1 [1]; [7]),Hoechst total cell count ratio (hAMSC donor 1 [1]; [8]),Hoechst total cell count ratio (hAMSC donor 1 [1]; [9]),Hoechst total cell count ratio (hAMSC donor 2 [2]; [7]),Hoechst total cell count ratio (hAMSC donor 2 [2]; [8]),Hoechst total cell count ratio (hAMSC donor 2 [2]; [9]),transgenic luciferase activity (hAMSC donor 1 [3]; [8]),transgenic luciferase activity (hAMSC donor 1 [3]; [9]),transgenic luciferase activity (hAMSC donor 2 [4]; [7]),transgenic luciferase activity (hAMSC donor 2 [4]; [8]),transgenic luciferase activity (hAMSC donor 2 [4]; [9]),transfection efficiency (hAMSC donor 1 [5]; [7]),transfection efficiency (hAMSC donor 1 [5]; [8]),transfection efficiency (hAMSC donor 1 [5]; [9]),transfection efficiency (hAMSC donor 2 [6]; [7]),transfection efficiency (hAMSC donor 2 [6]; [8]),transfection efficiency (hAMSC donor 2 [6]; [9]),transgenic luciferase activity (hAMSC donor 1 [3]; [7])
C[C@@H]1C/C=C/C=C/C=C/C=C/[C@H](O[C@@H]2O[C@H](C)[C@@H](O)[C@H](N)[C@@H]2O)C[C@@H]2O[C@](O)(C[C@@H](O)C[C@H]3O[C@@H]3/C=C/C(=O)O1)C[C@H](O)[C@H]2C(=O)O [Natamycin],1.15 ± 0.036,1.23 ± 0.074,1.37 ± 0.038,1.05 ± 0.11,1.3 ± 0.099,1.92 ± 0.18,0.234 ± 0.062,0.71 ± 0.27,0.504 ± 0.13,0.457 ± 0.012,0.214 ± 0.061,1.14 ± 0.36,1.23 ± 0.58,0.757 ± 0.14,1.03 ± 0.11,0.828 ± 0.052,0.37 ± 0.023,–
CCCN[C@H]1CCc2nc(N)sc2C1 [Pramipexole],1.37 ± 0.2,1.24 ± 0.025,1.2 ± 0.091,1.1 ± 0.12,1.36 ± 0.086,1.38 ± 0.1,0.845 ± 0.21,0.555 ± 0.25,0.501 ± 0.21,0.966 ± 0.04,0.844 ± 0.077,1.29 ± 0.34,1.37 ± 0.1,1.44 ± 0.45,0.894 ± 0.058,0.789 ± 0.2,0.818 ± 0.15,–
CN(C)CCCN1c2ccccc2Sc2ccc(Cl)cc21 [Chlorpromazine hydrochloride],1.09 ± 0.04,1.32 ± 0.17,0.967 ± 0.17,1.02 ± 0.3,1.17 ± 0.13,1.36 ± 0.1,0.913 ± 0.25,–,0.69 ± 0.025,0.905 ± 0.11,0.392 ± 0.079,1.2 ± 0.37,1.37 ± 0.4,0.743 ± 0.21,1.22 ± 0.31,1.26 ± 0.21,0.833 ± 0.15,0.52 ± 0.12
CC(=O)NS(=O)(=O)c1ccc(N)cc1 [Sulfacetamide],1.01 ± 0.09,1.23 ± 0.016,1.12 ± 0.14,0.991 ± 0.29,1.29 ± 0.069,0.968 ± 0.22,1.1 ± 0.19,–,0.928 ± 0.28,0.975 ± 0.34,0.996 ± 0.39,2.09 ± 0.76,1.23 ± 0.11,1.03 ± 0.27,1.12 ± 0.17,1.13 ± 0.1,1.71 ± 0.51,0.957 ± 0.47
COc1cc(C[C@@H](CO)[C@H](CO)Cc2ccc(O)c(OC)c2)ccc1O [Secoisolariciresinol],1.43 ± 0.018,1.1 ± 0.099,1.34 ± 0.098,1.05 ± 0.066,1.4 ± 0.056,0.873 ± 0.16,1.18 ± 0.86,–,0.773 ± 0.23,0.687 ± 0.035,1.05 ± 0.28,1.15 ± 0.24,1.02 ± 0.06,1.05 ± 0.16,0.946 ± 0.075,0.871 ± 0.13,1.24 ± 0.24,0.61 ± 0.051
Nc1nc2c(ncn2COC(CO)CO)c(=O)[nH]1 [Ganciclovir],1.09 ± 0.088,1.22 ± 0.12,1.32 ± 0.16,1.19 ± 0.15,1.14 ± 0.043,1.32 ± 0.38,1.46 ± 1.2,–,0.998 ± 0.2,1.12 ± 0.64,0.508 ± 0.081,1.44 ± 0.47,1.34 ± 0.41,0.886 ± 0.18,0.981 ± 0.18,1.35 ± 0.13,0.864 ± 0.13,0.702 ± 0.15
CC1(C)O[C@@H]2C[C@H]3[C@@H]4C[C@H](F)C5=CC(=O)C=C[C@]5(C)[C@@]4(F)[C@@H](O)C[C@]3(C)[C@]2(C(=O)CO)O1 [Fluocinolone acetonide],1.1 ± 0.032,1.09 ± 0.075,0.899 ± 0.12,1.21 ± 0.018,1.1 ± 0.091,1.28 ± 0.14,7.71 ± 2.1,–,3.92 ± 0.81,6.09 ± 0.38,4.27 ± 0.49,2.74 ± 0.79,2.72 ± 0.9,2.06 ± 0.54,1.93 ± 0.31,2.41 ± 0.062,2.33 ± 0.5,5.75 ± 0.6
O=c1[nH]c(=O)n([C@H]2C[C@H](O)[C@@H](CO)O2)cc1F [Floxuridine],1.14 ± 0.11,1.27 ± 0.013,1.341 ± 0.0091,1.35 ± 0.083,1.14 ± 0.029,1.4 ± 0.22,0.252 ± 0.029,0.791 ± 0.18,0.938 ± 0.47,0.74 ± 0.28,0.551 ± 0.17,0.951 ± 0.2,1.04 ± 0.17,0.9 ± 0.21,0.964 ± 0.042,1.14 ± 0.1,0.808 ± 0.11,–
OC[C@H]1O[C@@H](Oc2cc(O)cc(/C=C/c3ccc(O)cc3)c2)[C@H](O)[C@@H](O)[C@@H]1O [Piceid],1.49 ± 0.13,1.17 ± 0.03,1.3 ± 0.17,1.14 ± 0.034,1.43 ± 0.054,1.01 ± 0.14,1.17 ± 0.8,–,0.675 ± 0.14,0.271 ± 0.12,1.12 ± 0.23,0.795 ± 0.14,0.821 ± 0.065,1.18 ± 0.23,0.856 ± 0.023,1.02 ± 0.23,1.37 ± 0.31,0.369 ± 0.29
COC(=O)C1=C(C)NC(C)=C(C(=O)OC(C)C)C1c1cccc2nonc12 (stereo not drawn) [Isradipine],1.22 ± 0.23,1.13 ± 0.27,1.38 ± 0.11,0.874 ± 0.2,0.971 ± 0.046,0.968 ± 0.013,0.592 ± 0.47,0.318 ± 0.15,0.509 ± 0.068,1.06 ± 0.11,0.923 ± 0.79,1.18 ± 0.26,1.67 ± 0.54,1.16 ± 0.23,1.17 ± 0.42,1.54 ± 0.11,1.28 ± 0.2,–
OC[C@H]1O[C@@H](n2cnc3c(N[C@H]4CCC[C@@H]4O)ncnc32)[C@H](O)[C@@H]1O,1.45 ± 0.15,1.31 ± 0.12,1.31 ± 0.27,1.14 ± 0.083,1.31 ± 0.059,1.16 ± 0.09,2.06 ± 0.21,–,0.686 ± 0.041,0.965 ± 0.17,1.77 ± 0.34,1.01 ± 0.18,0.9 ± 0.15,1.05 ± 0.15,1.01 ± 0.086,0.902 ± 0.084,1.67 ± 0.29,0.545 ± 0.054
Cc1ncc([N+](=O)[O-])n1CC(C)O (stereo not drawn) [Secnidazole],1.08 ± 0.071,1.22 ± 0.11,1.41 ± 0.058,0.964 ± 0.2,1.09 ± 0.3,1.08 ± 0.15,0.984 ± 0.14,–,0.952 ± 0.69,1.07 ± 0.18,0.68 ± 0.24,1.43 ± 0.28,1.22 ± 0.16,0.836 ± 0.1,1.12 ± 0.27,1.28 ± 0.28,1.07 ± 0.12,0.664 ± 0.12
NS(=O)(=O)c1cc(C(=O)O)c(NCc2ccco2)cc1Cl [Furosemide],1.35 ± 0.19,1.11 ± 0.12,1.35 ± 0.16,1.07 ± 0.013,1.11 ± 0.051,1.18 ± 0.26,1.58 ± 1.3,0.361 ± 0.072,0.895 ± 0.12,0.528 ± 0.069,0.531 ± 0.023,0.74 ± 0.17,1.11 ± 0.041,1.18 ± 0.3,0.849 ± 0.048,1.3 ± 0.17,0.943 ± 0.087,–
CCN(Cc1ccncc1)C(=O)C(CO)c1ccccc1 (stereo not drawn) [Tropicamide],1.23 ± 0.23,0.977 ± 0.17,1.36 ± 0.25,1.16 ± 0.088,1.244 ± 0.01,1.41 ± 0.09,1.05 ± 1.2,0.55 ± 0.025,0.782 ± 0.07,0.493 ± 0.019,0.407 ± 0.056,0.744 ± 0.34,1.58 ± 0.85,0.977 ± 0.077,1.03 ± 0.12,1.06 ± 0.045,0.843 ± 0.18,–

# For convenience, some entries already given.
Compound,Hoechst total cell count ratio (hAMSC donor 1 [1]; [7]),Hoechst total cell count ratio (hAMSC donor 1 [1]; [8]),Hoechst total cell count ratio (hAMSC donor 1 [1]; [9]),Hoechst total cell count ratio (hAMSC donor 2 [2]; [7]),Hoechst total cell count ratio (hAMSC donor 2 [2]; [8]),Hoechst total cell count ratio (hAMSC donor 2 [2]; [9]),transgenic luciferase activity (hAMSC donor 1 [3]; [8]),transgenic luciferase activity (hAMSC donor 1 [3]; [9]),transgenic luciferase activity (hAMSC donor 2 [4]; [7]),transgenic luciferase activity (hAMSC donor 2 [4]; [8]),transgenic luciferase activity (hAMSC donor 2 [4]; [9]),transfection efficiency (hAMSC donor 1 [5]; [7]),transfection efficiency (hAMSC donor 1 [5]; [8]),transfection efficiency (hAMSC donor 1 [5]; [9]),transfection efficiency (hAMSC donor 2 [6]; [7]),transfection efficiency (hAMSC donor 2 [6]; [8]),transfection efficiency (hAMSC donor 2 [6]; [9]),transgenic luciferase activity (hAMSC donor 1 [3]; [7])
CC1(C)O[C@@H]2C[C@H]3[C@@H]4C[C@H](F)C5=CC(=O)C=C[C@]5(C)[C@@]4(F)[C@@H](O)C[C@]3(C)[C@]2(C(=O)CO)O1 [Fluocinolone acetonide],1.1 ± 0.032,1.09 ± 0.075,0.899 ± 0.12,1.21 ± 0.018,1.1 ± 0.091,1.28 ± 0.14,7.71 ± 2.1,–,3.92 ± 0.81,6.09 ± 0.38,4.27 ± 0.49,2.74 ± 0.79,2.72 ± 0.9,2.06 ± 0.54,1.93 ± 0.31,2.41 ± 0.062,2.33 ± 0.5,5.75 ± 0.6
O=c1[nH]c(=O)n([C@H]2C[C@H](O)[C@@H](CO)O2)cc1F [Floxuridine],1.14 ± 0.11,1.27 ± 0.013,1.341 ± 0.0091,1.35 ± 0.083,1.14 ± 0.029,1.4 ± 0.22,0.252 ± 0.029,0.791 ± 0.18,0.938 ± 0.47,0.74 ± 0.28,0.551 ± 0.17,0.951 ± 0.2,1.04 ± 0.17,0.9 ± 0.21,0.964 ± 0.042,1.14 ± 0.1,0.808 ± 0.11,–
